Experimental data: PubChem BioAssay AID652272 (Drosophila RNAi Screening Center, 2013)
The screen tested about 21,000 reagents; this is an unselected part of those with a known target gene and a result. Over the whole deposit, 503 (2.4%) are marked active. 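Raw plate light values, not normalised; calls rest on replicate z-scores that were not deposited; hits include reporter decreases as well as increases.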 Entries without a mark were called inactive. A plus sign joins genes that one reagent is predicted to hit. Not stated in the record: the amount of reagent, the time to read-out.

Purpose: 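Genome-wide knock-down search for components of Hedgehog signalling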 (primary screen)
Cells: Drosophila clone 8 (Cl8) cells
Reagents: long dsRNA against Drosophila genes
Measurement: 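Plate reader light from a firefly reporter under a ptc promoter fragment that responds to Hedgehog, with Renilla light as transfection reference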
Reading the numbers: firefly Hh reporter signal: higher = more ptc reporter light; Renilla reference signal: higher = more Renilla control light
Hit rule: 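Called a hit if the two-replicate mean z-score lies below -2 or above +3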
Meaning of the calls: active = hit: reporter lowered or raised; inactive = not a hit

no.	predicted target	DRSC id	firefly Hh reporter signal, replicate 1	firefly Hh reporter signal, replicate 2	Renilla reference signal, replicate 1	Renilla reference signal, replicate 2
1	Sgt	DRSC02812	73513	35403	3065	1165
2	CG17350	DRSC02611	90464	54877	2278	5024
3	Axud1	DRSC00270	1.34e5	78177	2880	2133
4	Acbp2	DRSC11141	73097	68564	7368	5186
5	DMAP1	DRSC06044	83496	74141	3798	3115
6	Slu7	DRSC14729	93367	49643	4746	2093
7	Lipt1 + CG42837	DRSC07183	1.11e5	76281	4777	3499
8	CG30323	DRSC07656	43232	75158	859	5152
9	Jon65Aiv	DRSC10644	75714	85878	8264	6513
10	CG18662	DRSC02691	1.16e5	40365	3077	4281
11	CG17721	DRSC15253	76688	1.20e5	2656	3536
12	CG30103	DRSC06894	63888	66464	1856	4224
13	RpL4	DRSC16833	35453 (active)	23873	1180	1547
14	Arp1	DRSC14118	71625	1.25e5	2600	3052
15	CG9547	DRSC03260	93385	1.18e5	4117	3105
16	Uros2	DRSC16505	1.01e5	81058	3458	2231
17	CG34289	DRSC13625	49584	2.59e5	13057	5738
18	Jhbp13	DRSC02913	1.71e5	59100	4139	4369
19	Cc2d2a	DRSC06750	83461	44717	2285	3360
20	Cc2d2a	DRSC06779	1.03e5	60937	2621	4165
21	CG14410	DRSC19596	97201	2.83e5	2946	10449
22	CG31926	DRSC00295	1.07e5	56893	2624	1613
23	ND-24L	DRSC10650	1.26e5		4832	2432
